Experimental data reported in paper PMC8997538.

The chains behind the UniProt entries cited, without tags or fusion partners. Where a name states a change or a piece, a line headed by the entry shows the natural chain unless it says otherwise.
UniProt Q9D1I2: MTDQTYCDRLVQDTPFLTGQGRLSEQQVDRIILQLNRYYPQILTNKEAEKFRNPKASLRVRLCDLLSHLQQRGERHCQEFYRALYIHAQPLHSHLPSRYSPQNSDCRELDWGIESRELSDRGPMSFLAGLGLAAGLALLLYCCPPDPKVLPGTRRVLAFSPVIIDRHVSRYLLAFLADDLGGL

Tests used:
[1] = biological target: 3×Myc-CARD19-ΔCARD (mouse) (UniProt Q9D1I2); experiment: co-IP; lysates of macrophages stably expressing Myc-tagged constructs, precleared, 2 µg mouse anti-Myc (9E10) 16 to 20 h at 4 °C, Protein G Sepharose, three washes; 50 mM Tris-HCl pH 7.5, 150 mM NaCl, 1% Triton X-100; Western blot
3×Myc-CARD19-ΔTM (mouse) = 3×Myc-CARD19-ΔTM (mouse) (UniProt Q9D1I2); experiment: as above

| binding [1] | binding (3×Myc-CARD19-ΔTM (mouse)) | Binder |
| --- | --- | --- |
| binds | binds weakly | MIC19 (protein, UniProt Q9CRB9 1-227) MGGTASTRRVTFEADENENITVVKGIRLSENVIDRMKESSPSGSKSQRYSSVYGASVSDEDLKRRVAEELALEQAKKESEHQRRLKQARDLERERAAANEQLTRAVLRERISSEEERMKAKHLARQLEEKDRVMRKQDAFYKEQLARLEERSSEFYKVTTEEYQKAAEEVEAKFKRYEYHPVCADLQTKILQCYRQNTQQTLSCSALASQYMHCVNHAKQSMLEKGG |
| binds | – | MIC25 (protein, UniProt Q91VN4 1-273) MGSAESAEARRVSFEMDEEERVRVLQGIRLSESVVNRMKDCSQPSAGEQLVPGFGPSSSAPVPTVPLPAISVPTVPAPTTPVPTAPSSSVRGLPGGTCKGPLTDVKVPSAESGGGLQSSAVKEDLKKFQQEQLAVQDEMVRVAKKEKEAAEKHLKASLPKKKASLTHEQQQSARLARELEDREAELSRRDTFYKEQQGRIQEKNAELYKLSSQQFHEAASKAESTIKPRRVEPVCSGLQAQILRCYRDHLHEVLLCSDLVKAYQHCVSTARKG |
| binds | binds weakly | SAMM50 (protein, UniProt Q8BGH2 1-469) MGTVHARSLEPLPSSGTDFGALGEEAEFVEVEPEAKQEILENKDVVVQHVHFDGLGRTKDDIIICEIGEVFKAKNLIEVMRRSHEAREKLLRLGIFRQVDVLIDTCHGEDALPNGLDVTFEVTELRRLTGSYNTMVGNNEGSMVLGLKLPNLLGRAEKVTFQFSYGTKETSYGLSFFKPQPGNFERNFSVNLYKVTGQFPWSSLRETDRGVSAEYSFPLWKTSHTVKWEGVWRELGCLSRTASFAVRKESGHSLKSSLSHAMVIDSRNSSILPRRGALFKVNQELAGYTGGDVSFIKEDFELQLNKPLALDSVFSTSLWGGMLVPIGDKPSSIADRFYLGGPTSVRGFSMHSIGPQSEGDYLGGEAYWAGGLHLYTPLPFRPGQGGFGELFRTHFFLNAGNLCNLNYGEGPKAHIRKLAECIRWSYGAGVVLRLGNIARLELNYCIPMGVQGGDRICDGVQFGAGIRFL |

These are yes or no findings as the source states them, for the method shown. In cells and extracts the contact can be indirect. Binding calls can cover weak binding; strength is not graded here.
